Measured values as given in PubChem BioAssay AID652054 (National Center for Advancing Translational Sciences (NCATS), 2013).
About 9,100 (2.5%) of roughly 360,000 compounds were called active. The shares of active, inactive and inconclusive entries below differ from those in the screen. No stated cut-off is given here; in the data, active means max response below about -50%; inconclusive means no clear call, values can overlap the other calls; inactive means above that. The source holds several records for some structures; these can differ, active in one and inactive in another.
On the % scale 0 is the no-effect control and ±100 the full control effect.

Protein sequences, listed by entry. Tags and fused reporters are not part of them.
UniProt P35462, whole entry, looked up: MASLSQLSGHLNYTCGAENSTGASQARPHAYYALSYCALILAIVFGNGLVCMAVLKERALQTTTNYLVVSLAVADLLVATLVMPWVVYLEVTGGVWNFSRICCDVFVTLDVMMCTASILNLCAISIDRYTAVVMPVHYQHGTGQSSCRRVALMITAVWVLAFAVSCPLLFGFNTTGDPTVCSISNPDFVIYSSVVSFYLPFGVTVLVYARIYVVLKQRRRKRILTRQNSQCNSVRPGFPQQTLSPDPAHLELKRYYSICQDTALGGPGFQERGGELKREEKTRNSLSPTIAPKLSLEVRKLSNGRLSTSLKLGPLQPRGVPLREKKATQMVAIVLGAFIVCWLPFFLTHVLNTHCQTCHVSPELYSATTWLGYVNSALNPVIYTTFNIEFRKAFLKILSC

Each compound was assayed against D(3) dopamine receptor (Homo sapiens) (UniProt P35462) (assay: qHTS of D3 Dopamine Receptor Antagonist: qHTS). Details: D3R cells, DiscoveRx beta-arrestin luminescence, antagonist mode; active compounds read low.
Outline: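 Cells expressing the human receptor were seeded at 1500 cells/well, incubated overnight at 37 degrees C in 5% CO2, then exposed to library compounds with dopamine controls for 90 minutes at 37 degrees C before luminescent detection.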
In the case of `O=S(=O)(/N=C(/Nc1ccc(Cl)c(S(=O)(=O)Nc2ccccc2Cl)c1)c1ccc(F)cc1)c1ccccc1`, the max response, negative = inhibition is reported as inconclusive: -31.3%. `Cn1cc(CCC(=O)NCc2cccc(Cl)c2)c2ccccc21` was tested, and the max response, negative = inhibition was inconclusive: -32.2%. In the case of `Cc1ccc(S(=O)(=O)N(C)Cc2cc3ccccc3[nH]c2=O)cc1`, the max response, negative = inhibition is reported as inconclusive: -37%. With `O=C(NCc1ccc2c(c1)OCO2)c1cc(-c2ccccn2)nc2ccccc12` the max response, negative = inhibition was inactive: 0.201%. With `CCCCN1CCC(COC(=O)c2cc(Cl)c(N)c3c2OCCO3)CC1` the max response, negative = inhibition was active: -108%. With `COc1ccc(OC)c(NC(=O)COC(=O)c2ccc(S(=O)(=O)N3CCOCC3)cc2)c1` the max response, negative = inhibition was inconclusive: -39.4%. For `CC(C(=O)Nc1ccccc1)N(C)CCOc1ccccc1` (stereo not given), the max response, negative = inhibition was inconclusive: -36.2%. For `Cc1ccc(-n2c(CCC(=O)O)ccc2-c2cccs2)cc1C`, the max response, negative = inhibition was inconclusive: -41%. In the case of `Cc1ccc(C(C)C)cc1OCC(=O)NCCCn1ccnc1`, the max response, negative = inhibition is reported as inconclusive: -44.8%. For `CCOC(=O)N1CCN(C(=S)NC(=O)c2c(-c3c(Cl)cccc3Cl)noc2C)CC1`, the max response, negative = inhibition was inconclusive: -31.1%. In the case of `O=C(O)CNS(=O)(=O)Cc1ccccc1`, the max response, negative = inhibition is reported as inactive: 4.89%. `CCONc1ncnc2nonc12` was tested, and the max response, negative = inhibition was inactive: 4.12%. `O=c1[nH]c(=S)c2ncn(-c3ccccc3)c2[nH]1` was tested, and the max response, negative = inhibition was inconclusive: -38.4%. `Cc1ccc(NC(=O)CSc2nn(-c3ccc(Cl)cc3)c(=S)s2)cc1S(=O)(=O)N(C)C` was tested, and the max response, negative = inhibition was inconclusive: -31.7%. `CCOc1ccccc1C1CC(=O)NC(SCC)=C1C#N` (stereo not given) was tested, and the max response, negative = inhibition was inconclusive: -31.4%. For `CCSc1nc(=O)n(-c2ccccc2)c(C)c1C(C)=O`, the max response, negative = inhibition was inconclusive: -48.9%. In the case of `CCOCCCNc1nc2ccccc2[nH]1`, the max response, negative = inhibition is reported as inactive: 14.8%. `COc1cc(CN(C)Cc2cccc3ccccc23)cc([N+](=O)[O-])c1O` was tested, and the max response, negative = inhibition was inconclusive: -34.4%. In the case of `O=C1Nc2ccc(NS(=O)(=O)c3cccs3)c3cccc1c23`, the max response, negative = inhibition is reported as inconclusive: -43.3%. `O=c1c(-c2ccccc2)c(O)cc(-c2ccncc2)n1-c1ccc(Cl)cc1` was tested, and the max response, negative = inhibition was inactive: -15.7%. `CCc1ccc(NC(=O)CSCc2nc(N)nc(Nc3ccccc3CC)n2)cc1` was tested, and the max response, negative = inhibition was inactive: -16.9%. In the case of `COc1cc(CN2CCN(c3cccc(Cl)c3)CC2)cc(OC)c1OC`, the max response, negative = inhibition is reported as active: -71.4%. With `Cc1ccc(CN2C(=O)C(CC(C)C)Nc3ncnc(N4CCN(c5ccccc5)CC4)c32)cc1` (stereo not given) the max response, negative = inhibition was active: -54.6%. `CN(C)C(CNC(=O)c1ccc2nccnc2c1)c1ccco1` (stereo not given) was tested, and the max response, negative = inhibition was inconclusive: -33.8%. `CCN(Cc1ccccc1)C(=O)c1ccc(N(C)S(=O)(=O)c2ccc(C)cc2)cc1` was tested, and the max response, negative = inhibition was inconclusive: -30.7%.
